Test system: acetic acid-induced writhing
Assay: Acetic acid-induced writhing test
Type: in vivo
Details: 3 mg/kg, s.c.; mice

CN1CC[C@]23c4c5ccc(O)c4O[C@H]2[C@@H](O)C=C[C@H]3[C@H]1C5 [morphine]
inhibition of the writhing assay response: full inhibition

From publication PMC9173812 (Proceedings of the National Academy of Sciences of the …, 2022)
